Where two headings read alike, the source gives them in different places. Results are given in words; binding and its absence hold for the method and conditions named. Binding seen in cells or lysates may run through a third protein. These calls come from enrichment with a bait or labelling near it, and not all partners need be listed. For part of these data: A no says only that the protein was not detected with the bait. For part of these data: Tags and fused reporters may be left off the sequences shown.

Holding throughout (test): affinity purification with mass spectrometry
The target of assay [1] is FLAG-GATAD2B (full-length) (UniProt Q8WXI9).
In assay [2] the target is FLAG-MBD2b.
In assay [3] the target is T1, FLAG-GATAD2B-N (N-terminal half of GATAD2B, residues 1-276) (UniProt Q8WXI9).
T1 sequence: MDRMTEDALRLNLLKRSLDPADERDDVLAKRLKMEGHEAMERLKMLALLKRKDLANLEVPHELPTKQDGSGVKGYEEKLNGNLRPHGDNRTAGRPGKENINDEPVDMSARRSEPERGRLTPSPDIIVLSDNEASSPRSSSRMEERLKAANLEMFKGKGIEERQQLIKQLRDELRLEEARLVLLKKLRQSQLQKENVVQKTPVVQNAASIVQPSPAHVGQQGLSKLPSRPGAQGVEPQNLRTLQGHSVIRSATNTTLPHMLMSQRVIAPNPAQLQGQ

Assay [4] has as its target FLAG-GATAD2B (full-length) (UniProt Q8WXI9). The source holds these as a separate data set.
The target in assay [5] is T2, FLAG-GATAD2B-C (GATAD2B C-terminal region) (UniProt Q8WXI9).
T2 sequence: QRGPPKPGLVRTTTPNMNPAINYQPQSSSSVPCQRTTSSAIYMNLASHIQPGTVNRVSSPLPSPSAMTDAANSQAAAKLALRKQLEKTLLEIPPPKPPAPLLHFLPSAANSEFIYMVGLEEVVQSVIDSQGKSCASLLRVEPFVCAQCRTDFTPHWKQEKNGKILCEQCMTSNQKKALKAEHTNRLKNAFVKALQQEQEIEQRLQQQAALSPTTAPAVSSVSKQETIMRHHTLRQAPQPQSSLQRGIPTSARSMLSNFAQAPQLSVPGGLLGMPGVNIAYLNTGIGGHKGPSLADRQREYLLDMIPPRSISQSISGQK

The target in assay [6] is FLAG-MBD2a, Q9UBB5. The conditions noted are these: remark: other sources report otherwise.
The target in assay [7] is T3, FLAG-MBD3, O95983.
T3 chain: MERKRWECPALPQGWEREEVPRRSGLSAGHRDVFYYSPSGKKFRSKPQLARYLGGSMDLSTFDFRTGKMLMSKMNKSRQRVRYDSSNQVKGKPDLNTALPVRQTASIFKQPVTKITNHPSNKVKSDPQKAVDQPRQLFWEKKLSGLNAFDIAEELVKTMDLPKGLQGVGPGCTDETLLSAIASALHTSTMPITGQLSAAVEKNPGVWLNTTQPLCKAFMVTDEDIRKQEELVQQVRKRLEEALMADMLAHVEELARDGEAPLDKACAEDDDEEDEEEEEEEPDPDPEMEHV
As to conditions: remark: other sources report otherwise.

The target in assay [8] is T4, FLAG-CDK2AP1 (UniProt O14519).
T4 sequence: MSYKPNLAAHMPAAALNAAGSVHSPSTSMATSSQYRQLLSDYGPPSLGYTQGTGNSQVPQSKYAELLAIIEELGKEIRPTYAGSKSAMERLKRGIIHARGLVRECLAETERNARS

Assay [9] addresses T4, FLAG-CDK2AP1. This is another data set of the same source.
For assay [10], the target named is FLAG-MBD3 (UniProt O95983).

B1: CDK2AP1 (endogenous) (protein, UniProt O14519 1-115)
chain: T4 sequence
As to B1, the binding result in [1] is “binds”; in assay [2], “binds”; in [3], “no binding”; in [4] it was “binds”; in assay [5], “binds”.

B2: CDK2AP1 (endogenous), O14519 1-115 (protein)
chain: T4 sequence
As to B2, the binding result in assay [6] and in assay [7] was “no binding” throughout.

B3: QKI (protein, UniProt Q96PU8 1-341)
chain: MVGEMETKEKPKPTPDYLMQLMNDKKLMSSLPNFCGIFNHLERLLDEEISRVRKDMYNDTLNGSTEKRSAELPDAVGPIVQLQEKLYVPVKEYPDFNFVGRILGPRGLTAKQLEAETGCKIMVRGKGSMRDKKKEEQNRGKPNWEHLNEDLHVLITVEDAQNRAEIKLKRAVEEVKKLLVPAAEGEDSLKKMQLMELAILNGTYRDANIKSPALAFSLAATAQAAPRIITGPAPVLPPAALRTPTPAGPTIMPLIRQIQTAVMPNGTPHPTAAIVPPGPEAGLIYTPYEYPYTLAPATSILEYPIEPSGVLGAVATKVRRHDMRVHPYQRIVTADRAATGN
Turning to B3, the binding entry in assay [8] and in assay [9] was “binds” throughout.

B4: ZNF219 (protein, UniProt Q9P2Y4 1-722)
chain: MEGSRPRAPSGHLAPSPPAFDGELDLQRYSNGPAVSAGSLGMGAVSWSESRAGERRFPCPVCGKRFRFNSILALHLRAHPGAQAFQCPHCGHRAAQRALLRSHLRTHQPERPRSPAARLLLELEERALLREARLGRARSSGGMQATPATEGLARPQAPSSSAFRCPYCKGKFRTSAERERHLHILHRPWKCGLCSFGSSQEEELLHHSLTAHGAPERPLAATSAAPPPQPQPQPPPQPEPRSVPQPEPEPEPEREATPTPAPAAPEEPPAPPEFRCQVCGQSFTQSWFLKGHMRKHKASFDHACPVCGRCFKEPWFLKNHMKVHASKLGPLRAPGPASGPARAPQPPDLGLLAYEPLGPALLLAPAPTPAERREPPSLLGYLSLRAGEGRPNGEGAEPGPGRSFGGFRPLSSALPARARRHRAEEPEEEEEVVEAEEETWARGRSLGSLASLHPRPGEGPGHSASAAGAQARSTATQEENGLLVGGTRPEGGRGATGKDCPFCGKSFRSAHHLKVHLRVHTGERPYKCPHCDYAGTQSGSLKYHLQRHHREQRSGAGPGPPPEPPPPSQRGSAPQSGAKPSPQPATWVEGASSPRPPSSGAGPGSRRKPASPGRTLRNGRGGEAEPLDLSLRAGPGGEAGPGGALHRCLFCPFATGAPELMALHLQVHHSRRARGRRPPQADASPPYARVPSGETPPSPSQEGEEGSGLSRPGEAGLGGQER
As for B4, the binding result in assay [2] is reported as “binds”; in assay [10] it was “no binding”.

B5: ZNF219, Q9P2Y4 1-722 (protein)
chain: B4 chain
With B5, the binding entry in assay [6] is “no binding”.

Values taken from publication doi:10.1101/2021.01.27.428018.
